Laboratory results: article PMC9048679, “Correlation Between Improved Mating Efficiency and Weakened Scaffold-Kinase Interaction in the Mating Pheromone Response Pathway Revealed by Interspecies Complementation” (Frontiers in Microbiology, 2022)

Experiments:
[1] = molecular target: KlSte7 (Ste7 of Kluyveromyces lactis), Gal4-BD fusion (K. lactis) (UniProt Q6CSZ8); test: two-hybrid; Matchmaker GAL4 system; Ste5 forms on Gal4-AD (pGADT7, AH109), Ste7 orthologs on Gal4-BD (pGBKT7, Y187), diploids on SC-Leu-Trp; quantitative β-galactosidase assay of cell lysate with ONPG; units of the same BD-Ste7 with void pGADT7 subtracted; mean of three colonies
[2] = molecular target: KlSte7 (Ste7 of Kluyveromyces lactis), Gal4-BD fusion (K. lactis) (UniProt Q6CSZ8); test: as above; remark: listed apart in the source

Q: For “KmSte5ΔS (KmSte5 with the negatively charged segment shortened to the length of that of KlSte5), Gal4-AD fusion (from UniProt A0ABX6ETE1)”, which binding [1] is on record?
A: binds

B1: ScSte5 (Ste5 of Saccharomyces cerevisiae), Gal4-AD fusion (protein, UniProt P32917 1-917)
chain: MMETPTDNIVSPFHNFGSSTQYSGTLSRTPNQIIELEKPSTLSPLSRGKKWTEKLARFQRSSAKKKRFSPSPISSSTFSFSPKSRVTSSNSSGNEDGNLMNTPSTVSTDYLPQHPHRTSSLPRPNSNLFHASNSNLSRANEPPRAENLSDNIPPKVAPFGYPIQRTSIKKSFLNASCTLCDEPISNRRKGEKIIELACGHLSHQECLIISFGTTSKADVRALFPFCTKCKKDTNKAVQCIPENDELKDILISDFLIHKIPDSELSITPQSRFPPYSPLLPPFGLSYTPVERQTIYSQAPSLNPNLILAAPPKERNQIPQKKSNYTFLHSPLGHRRIPSGANSILADTSVALSANDSISAVSNSVRAKDDETKTTLPLLRSYFIQILLNNFQEELQDWRIDGDYGLLRLVDKLMISKDGQRYIQCWCFLFEDAFVIAEVDNDVDVLEIRLKNLEVFTPIANLRMTTLEASVLKCTLNKQHCADLSDLYIVQNINSDESTTVQKWISGILNQDFVFNEDNITSTLPILPIIKNFSKDVGNGRHETSTFLGLINPNKVVEVGNVHDNDTVIIRRGFTLNSGECSRQSTVDSIQSVLTTISSILSLKREKPDNLAIILQIDFTKLKEEDSLIVVYNSLKALTIKFARLQFCFVDRNNYVLDYGSVLHKIDSLDSISNLKSKSSSTQFSPIWLKNTLYPENIHEHLGIVAVSNSNMEAKKSILFQDYRCFTSFGRRRPNELKIKVGYLNVDYSDKIDELVEASSWTFVLETLCYSFGLSFDEHDDDDEEDNDDSTDNELDNSSGSLSDAESTTTIHIDSPFDNENATANMVNDRNLLTEGEHSNIENLETVASSVQPALIPNIRFSLHSEEEGTNENENENDMPVLLLSDMDKGIDGITRRSSFSSLIESGNNNCPLHMDYI
Q: How did the binding [2] turn out when B1 was run?
A: binds

Where two headings read alike, the source gives them in different places. These are yes or no findings as the source states them, for the method shown. A result given as binding can be weak or reduced; the word gives no strength. For some assays here: Where a sequence is shown, tags or fusion partners need not be part of it.
